Measured values from article PMC8940956.
No constants are given. Whether binding was seen depends on the method and setting. Binding seen in cells or lysates may run through a third protein. Some entries that bind do so weakly or less than the wild type.

By UniProt entry, the sequences of proteins in these tests, tags left out. Residues count along the entry.
UniProt Q01705, residues 19-2531: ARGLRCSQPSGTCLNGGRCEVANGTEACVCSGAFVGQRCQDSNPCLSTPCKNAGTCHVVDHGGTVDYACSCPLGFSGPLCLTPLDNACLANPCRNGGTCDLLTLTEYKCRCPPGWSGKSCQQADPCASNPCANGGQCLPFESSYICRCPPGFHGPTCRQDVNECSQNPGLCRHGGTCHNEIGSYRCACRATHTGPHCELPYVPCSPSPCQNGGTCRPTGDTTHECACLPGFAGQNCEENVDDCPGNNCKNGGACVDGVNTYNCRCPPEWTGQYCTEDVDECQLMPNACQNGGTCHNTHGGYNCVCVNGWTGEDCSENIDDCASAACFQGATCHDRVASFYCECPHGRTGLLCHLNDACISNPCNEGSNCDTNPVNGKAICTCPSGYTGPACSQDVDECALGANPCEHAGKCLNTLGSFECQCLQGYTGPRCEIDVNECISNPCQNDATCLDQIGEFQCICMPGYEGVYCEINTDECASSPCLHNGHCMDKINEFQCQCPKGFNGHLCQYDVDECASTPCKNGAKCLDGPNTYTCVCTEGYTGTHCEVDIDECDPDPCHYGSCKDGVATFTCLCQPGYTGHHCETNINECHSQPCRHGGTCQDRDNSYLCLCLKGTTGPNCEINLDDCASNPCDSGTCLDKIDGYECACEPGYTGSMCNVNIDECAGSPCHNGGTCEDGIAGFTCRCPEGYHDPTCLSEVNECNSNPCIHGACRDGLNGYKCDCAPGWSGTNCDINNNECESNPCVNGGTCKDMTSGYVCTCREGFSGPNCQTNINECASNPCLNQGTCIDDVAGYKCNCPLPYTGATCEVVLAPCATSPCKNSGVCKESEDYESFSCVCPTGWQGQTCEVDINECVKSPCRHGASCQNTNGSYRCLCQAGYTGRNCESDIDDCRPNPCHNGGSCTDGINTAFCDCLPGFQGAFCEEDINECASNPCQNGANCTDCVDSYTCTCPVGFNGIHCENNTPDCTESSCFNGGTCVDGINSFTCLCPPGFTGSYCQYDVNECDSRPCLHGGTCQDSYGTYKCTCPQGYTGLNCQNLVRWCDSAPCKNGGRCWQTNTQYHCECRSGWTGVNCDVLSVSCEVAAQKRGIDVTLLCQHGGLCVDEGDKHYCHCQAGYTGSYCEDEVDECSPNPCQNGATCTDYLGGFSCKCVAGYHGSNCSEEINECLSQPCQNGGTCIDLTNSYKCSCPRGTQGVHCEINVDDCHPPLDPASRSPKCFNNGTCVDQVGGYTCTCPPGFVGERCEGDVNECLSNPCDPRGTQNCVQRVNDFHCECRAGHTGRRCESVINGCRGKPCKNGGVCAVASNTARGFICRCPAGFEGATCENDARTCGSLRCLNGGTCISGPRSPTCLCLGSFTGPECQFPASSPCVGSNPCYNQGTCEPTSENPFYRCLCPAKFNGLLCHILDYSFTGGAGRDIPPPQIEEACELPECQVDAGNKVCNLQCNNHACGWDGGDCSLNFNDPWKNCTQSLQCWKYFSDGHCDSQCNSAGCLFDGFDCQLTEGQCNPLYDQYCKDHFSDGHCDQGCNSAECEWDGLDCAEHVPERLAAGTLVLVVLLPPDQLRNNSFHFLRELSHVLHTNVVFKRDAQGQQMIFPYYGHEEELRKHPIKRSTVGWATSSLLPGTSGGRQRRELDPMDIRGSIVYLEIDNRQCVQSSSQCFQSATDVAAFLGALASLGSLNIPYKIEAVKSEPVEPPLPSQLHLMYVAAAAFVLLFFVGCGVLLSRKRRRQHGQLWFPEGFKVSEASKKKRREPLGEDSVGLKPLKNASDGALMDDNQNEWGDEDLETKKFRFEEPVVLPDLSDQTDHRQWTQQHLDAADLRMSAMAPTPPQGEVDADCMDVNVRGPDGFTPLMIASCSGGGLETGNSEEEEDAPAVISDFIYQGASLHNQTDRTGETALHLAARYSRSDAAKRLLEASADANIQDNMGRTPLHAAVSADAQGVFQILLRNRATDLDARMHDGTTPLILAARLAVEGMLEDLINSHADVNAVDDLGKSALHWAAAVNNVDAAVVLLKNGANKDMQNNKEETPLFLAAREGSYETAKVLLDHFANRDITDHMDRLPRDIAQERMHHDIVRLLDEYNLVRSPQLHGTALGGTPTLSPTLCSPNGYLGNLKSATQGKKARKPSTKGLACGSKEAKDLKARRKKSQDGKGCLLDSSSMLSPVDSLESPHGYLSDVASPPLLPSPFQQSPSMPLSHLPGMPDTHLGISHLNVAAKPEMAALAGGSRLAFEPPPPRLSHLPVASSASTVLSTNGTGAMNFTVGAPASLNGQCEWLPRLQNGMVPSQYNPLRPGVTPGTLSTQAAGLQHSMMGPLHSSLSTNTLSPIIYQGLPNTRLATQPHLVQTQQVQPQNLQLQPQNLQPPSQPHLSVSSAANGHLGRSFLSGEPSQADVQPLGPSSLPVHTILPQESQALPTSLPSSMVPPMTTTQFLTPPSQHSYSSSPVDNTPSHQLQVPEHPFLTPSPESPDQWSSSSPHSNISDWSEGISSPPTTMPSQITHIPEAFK
UniProt P46531, residues 19-2555: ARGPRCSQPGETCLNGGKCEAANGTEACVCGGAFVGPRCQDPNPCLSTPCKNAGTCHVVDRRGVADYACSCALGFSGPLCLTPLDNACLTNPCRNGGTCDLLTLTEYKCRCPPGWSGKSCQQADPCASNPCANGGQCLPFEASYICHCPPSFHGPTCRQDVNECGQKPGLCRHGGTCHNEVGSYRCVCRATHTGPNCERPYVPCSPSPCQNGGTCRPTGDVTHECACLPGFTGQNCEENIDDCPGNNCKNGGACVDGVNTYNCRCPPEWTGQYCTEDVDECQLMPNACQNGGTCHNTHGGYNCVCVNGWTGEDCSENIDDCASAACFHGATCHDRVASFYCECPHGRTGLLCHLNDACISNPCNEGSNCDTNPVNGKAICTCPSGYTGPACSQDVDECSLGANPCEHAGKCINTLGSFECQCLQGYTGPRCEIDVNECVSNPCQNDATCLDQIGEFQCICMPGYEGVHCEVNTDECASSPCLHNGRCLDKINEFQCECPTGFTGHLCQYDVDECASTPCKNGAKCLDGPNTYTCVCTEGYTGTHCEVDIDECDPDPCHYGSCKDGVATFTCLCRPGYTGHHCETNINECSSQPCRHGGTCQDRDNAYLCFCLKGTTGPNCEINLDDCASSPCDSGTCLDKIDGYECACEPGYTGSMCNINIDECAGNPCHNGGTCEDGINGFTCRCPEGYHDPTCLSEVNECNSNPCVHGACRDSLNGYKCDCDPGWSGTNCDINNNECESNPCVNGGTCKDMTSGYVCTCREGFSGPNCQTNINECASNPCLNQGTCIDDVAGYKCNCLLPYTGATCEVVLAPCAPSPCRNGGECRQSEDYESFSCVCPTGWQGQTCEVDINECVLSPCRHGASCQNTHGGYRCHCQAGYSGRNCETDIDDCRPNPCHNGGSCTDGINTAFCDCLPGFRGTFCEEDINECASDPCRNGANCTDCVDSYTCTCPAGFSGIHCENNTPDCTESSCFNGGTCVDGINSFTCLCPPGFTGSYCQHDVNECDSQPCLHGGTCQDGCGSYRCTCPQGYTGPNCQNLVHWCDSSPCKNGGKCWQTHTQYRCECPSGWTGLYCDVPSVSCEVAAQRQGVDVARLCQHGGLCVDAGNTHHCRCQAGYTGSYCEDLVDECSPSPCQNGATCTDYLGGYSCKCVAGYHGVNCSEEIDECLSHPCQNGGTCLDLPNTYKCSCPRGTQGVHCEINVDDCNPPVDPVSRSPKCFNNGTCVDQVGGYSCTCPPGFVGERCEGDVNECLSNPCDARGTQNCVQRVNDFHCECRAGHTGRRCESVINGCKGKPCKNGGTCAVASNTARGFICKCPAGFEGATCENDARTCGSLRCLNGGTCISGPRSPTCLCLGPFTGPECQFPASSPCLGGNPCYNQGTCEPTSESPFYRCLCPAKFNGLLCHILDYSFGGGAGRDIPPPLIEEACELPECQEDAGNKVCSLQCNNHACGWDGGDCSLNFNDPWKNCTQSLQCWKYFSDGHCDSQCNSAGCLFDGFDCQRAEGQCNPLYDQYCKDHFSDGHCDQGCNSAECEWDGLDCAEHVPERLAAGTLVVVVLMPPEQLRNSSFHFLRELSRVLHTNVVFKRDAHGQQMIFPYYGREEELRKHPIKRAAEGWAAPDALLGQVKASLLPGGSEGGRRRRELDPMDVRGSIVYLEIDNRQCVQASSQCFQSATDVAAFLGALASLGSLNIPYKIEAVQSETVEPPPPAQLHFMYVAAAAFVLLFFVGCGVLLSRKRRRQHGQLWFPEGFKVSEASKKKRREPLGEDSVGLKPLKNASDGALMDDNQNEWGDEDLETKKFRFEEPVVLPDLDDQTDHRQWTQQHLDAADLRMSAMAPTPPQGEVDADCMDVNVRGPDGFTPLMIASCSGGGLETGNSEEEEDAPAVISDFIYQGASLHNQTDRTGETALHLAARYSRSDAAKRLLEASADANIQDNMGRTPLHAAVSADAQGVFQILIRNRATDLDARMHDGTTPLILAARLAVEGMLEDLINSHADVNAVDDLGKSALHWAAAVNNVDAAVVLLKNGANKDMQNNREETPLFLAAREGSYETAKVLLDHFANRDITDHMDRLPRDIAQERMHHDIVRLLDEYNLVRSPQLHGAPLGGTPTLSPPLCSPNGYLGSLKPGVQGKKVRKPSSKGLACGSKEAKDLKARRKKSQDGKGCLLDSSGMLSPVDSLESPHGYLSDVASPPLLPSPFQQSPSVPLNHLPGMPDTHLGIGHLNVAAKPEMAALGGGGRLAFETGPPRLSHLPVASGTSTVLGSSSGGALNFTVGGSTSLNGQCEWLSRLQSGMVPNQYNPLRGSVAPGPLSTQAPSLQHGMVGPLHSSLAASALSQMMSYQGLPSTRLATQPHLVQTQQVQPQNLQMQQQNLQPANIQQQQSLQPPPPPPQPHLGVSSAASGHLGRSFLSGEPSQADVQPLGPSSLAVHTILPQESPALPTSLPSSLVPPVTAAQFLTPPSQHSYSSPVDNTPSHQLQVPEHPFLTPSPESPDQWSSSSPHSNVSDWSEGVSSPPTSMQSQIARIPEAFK

B1: G protein-coupled receptor kinase-interacting protein 1 (GIT1), endogenous, mouse organs (protein, UniProt Q68FF6 1-770)
chain: MSRKGPRAEVCADCSAPDPGWASISRGVLVCDECCSVHRSLGRHISIVKHLRHSAWPPTLLQMVHTLASNGANSIWEHSLLDPAQVQSGRRKANPQDKVHPIKSEFIRAKYQMLAFVHKLPCRDDDGVTAKDLSKQLHSSVRTGNLETCLRLLSLGAQANFFHPEKGTTPLHVAAKAGQTLQAELLVVYGADPGSPDVNGRTPIDYARQAGHHELAERLVECQYELTDRLAFYLCGRKPDHKNGHYIIPQMADRSRQKCMSQSLDLSELAKAAKKKLQALSNRLFEELAMDVYDEVDRRENDAVWLATQNHSTLVTERSAVPFLPVNPEYSATRNQGRQKLARFNAREFATLIIDILSEAKRRQQGKSLSSPTDNLELSARSQSELDDQHDYDSVASDEDTDQEPLPSAGATRNNRARSMDSSDLSDGAVTLQEYLELKKALATSEAKVQQLMKVNSSLSDELRRLQREIHKLQAENLQLRQPPGPVPPPSLPSERAEHTLMGPGGSTHRRDRQAFSMYEPGSALKPFGGTPGDELATRLQPFHSTELEDDAIYSVHVPAGLYRIRKGVSASSVPFTPSSPLLSCSQEGSRHASKLSRHGSGADSDYENTQSGDPLLGLEGKRFLELSKEDELHPELESLDGDLDPGLPSTEDVILKTEQVTKNIQELLRAAQEFKHDSFVPCSEKIHLAVTEMASLFPKRPALEPVRSSLRLLNASAYRLQSECRKTVPPEPGAPVDFQLLTQQVIQCAYDIAKAAKQLVTITTREKKQ
B2: GIT2 (protein, UniProt Q14161 1-759)
chain: MSKRLRSSEVCADCSGPDPSWASVNRGTFLCDECCSVHRSLGRHISQVRHLKHTPWPPTLLQMVETLYNNGANSIWEHSLLDPASIMSGRRKANPQDKVHPNKAEFIRAKYQMLAFVHRLPCRDDDSVTAKDLSKQLHSSVRTGNLETCLRLLSLGAQANFFHPEKGNTPLHVASKAGQILQAELLAVYGADPGTQDSSGKTPVDYARQGGHHELAERLVEIQYELTDRLAFYLCGRKPDHKNGQHFIIPQMADSSLDLSELAKAAKKKLQSLSNHLFEELAMDVYDEVDRRETDAVWLATQNHSALVTETTVVPFLPVNPEYSSTRNQGRQKLARFNAHEFATLVIDILSDAKRRQQGSSLSGSKDNVELILKTINNQHSVESQDNDQPDYDSVASDEDTDLETTASKTNRQKSLDSDLSDGPVTVQEFMEVKNALVASEAKIQQLMKVNNNLSDELRIMQKKLQTLQSENSNLRKQATTNVYQVQTGSEYTDTSNHSSLKRRPSARGSRPMSMYETGSGQKPYLPMGEASRPEESRMRLQPFPAHIGRSALVTSSSSLPSFPSTLSWSRDESARRASRLEKQNSTPESDYDNTPNDMEPDGMGSSRKGRQRSMVWPGDGLVPDTAEPHVAPSPTLPSTEDVIRKTEQITKNIQELLRAAQENKHDSYIPCSERIHVAVTEMAALFPKKPKSDMVRTSLRLLTSSAYRLQSECKKTLPGDPGSPTDVQLVTQQVIQCAYDIAKAAKQLVTITTKENNN

What was measured:
[1] = target: Notch1, endogenous, mouse organs (mouse (endogenous in mouse organs)) (UniProt Q01705); assay: co-IP; endogenous proteins; co-IP of GIT1 with Notch1 from lysates of mouse organs and of human breast cell lines (184A1, MDA-MB-231); 6 ug antibody 1 h at 4 °C, Protein G Sepharose overnight; lysis buffer A (10 mM HEPES pH 7.4, 100 mM NaCl, 2 mM EDTA, 1 mM 2-mercaptoethanol, 0.5% Triton X-100); washed with buffer A + 50 mM NaCl
[2] = target: Notch1 (in the co-IP tested for GIT2; lysate not told) (UniProt P46531); assay: co-IP; co-IP with Notch1 probed for GIT2 (Supplementary Fig. 9); lysate not given

| binding [1] | binding [2] | Binder |
| --- | --- | --- |
| binds | – | B1 |
| – | no binding | B2 |
